Laboratory results from article doi:10.1101/721316.
No constants are given. Whether binding was seen depends on the method and setting. Binding seen in cells or lysates may run through a third protein. These calls come from enrichment with a bait or labelling near it, and not all partners need be listed. Tags and fused reporters may be left off the sequences shown.

The chains behind the UniProt entries cited, without tags or fusion partners.
UniProt P21333: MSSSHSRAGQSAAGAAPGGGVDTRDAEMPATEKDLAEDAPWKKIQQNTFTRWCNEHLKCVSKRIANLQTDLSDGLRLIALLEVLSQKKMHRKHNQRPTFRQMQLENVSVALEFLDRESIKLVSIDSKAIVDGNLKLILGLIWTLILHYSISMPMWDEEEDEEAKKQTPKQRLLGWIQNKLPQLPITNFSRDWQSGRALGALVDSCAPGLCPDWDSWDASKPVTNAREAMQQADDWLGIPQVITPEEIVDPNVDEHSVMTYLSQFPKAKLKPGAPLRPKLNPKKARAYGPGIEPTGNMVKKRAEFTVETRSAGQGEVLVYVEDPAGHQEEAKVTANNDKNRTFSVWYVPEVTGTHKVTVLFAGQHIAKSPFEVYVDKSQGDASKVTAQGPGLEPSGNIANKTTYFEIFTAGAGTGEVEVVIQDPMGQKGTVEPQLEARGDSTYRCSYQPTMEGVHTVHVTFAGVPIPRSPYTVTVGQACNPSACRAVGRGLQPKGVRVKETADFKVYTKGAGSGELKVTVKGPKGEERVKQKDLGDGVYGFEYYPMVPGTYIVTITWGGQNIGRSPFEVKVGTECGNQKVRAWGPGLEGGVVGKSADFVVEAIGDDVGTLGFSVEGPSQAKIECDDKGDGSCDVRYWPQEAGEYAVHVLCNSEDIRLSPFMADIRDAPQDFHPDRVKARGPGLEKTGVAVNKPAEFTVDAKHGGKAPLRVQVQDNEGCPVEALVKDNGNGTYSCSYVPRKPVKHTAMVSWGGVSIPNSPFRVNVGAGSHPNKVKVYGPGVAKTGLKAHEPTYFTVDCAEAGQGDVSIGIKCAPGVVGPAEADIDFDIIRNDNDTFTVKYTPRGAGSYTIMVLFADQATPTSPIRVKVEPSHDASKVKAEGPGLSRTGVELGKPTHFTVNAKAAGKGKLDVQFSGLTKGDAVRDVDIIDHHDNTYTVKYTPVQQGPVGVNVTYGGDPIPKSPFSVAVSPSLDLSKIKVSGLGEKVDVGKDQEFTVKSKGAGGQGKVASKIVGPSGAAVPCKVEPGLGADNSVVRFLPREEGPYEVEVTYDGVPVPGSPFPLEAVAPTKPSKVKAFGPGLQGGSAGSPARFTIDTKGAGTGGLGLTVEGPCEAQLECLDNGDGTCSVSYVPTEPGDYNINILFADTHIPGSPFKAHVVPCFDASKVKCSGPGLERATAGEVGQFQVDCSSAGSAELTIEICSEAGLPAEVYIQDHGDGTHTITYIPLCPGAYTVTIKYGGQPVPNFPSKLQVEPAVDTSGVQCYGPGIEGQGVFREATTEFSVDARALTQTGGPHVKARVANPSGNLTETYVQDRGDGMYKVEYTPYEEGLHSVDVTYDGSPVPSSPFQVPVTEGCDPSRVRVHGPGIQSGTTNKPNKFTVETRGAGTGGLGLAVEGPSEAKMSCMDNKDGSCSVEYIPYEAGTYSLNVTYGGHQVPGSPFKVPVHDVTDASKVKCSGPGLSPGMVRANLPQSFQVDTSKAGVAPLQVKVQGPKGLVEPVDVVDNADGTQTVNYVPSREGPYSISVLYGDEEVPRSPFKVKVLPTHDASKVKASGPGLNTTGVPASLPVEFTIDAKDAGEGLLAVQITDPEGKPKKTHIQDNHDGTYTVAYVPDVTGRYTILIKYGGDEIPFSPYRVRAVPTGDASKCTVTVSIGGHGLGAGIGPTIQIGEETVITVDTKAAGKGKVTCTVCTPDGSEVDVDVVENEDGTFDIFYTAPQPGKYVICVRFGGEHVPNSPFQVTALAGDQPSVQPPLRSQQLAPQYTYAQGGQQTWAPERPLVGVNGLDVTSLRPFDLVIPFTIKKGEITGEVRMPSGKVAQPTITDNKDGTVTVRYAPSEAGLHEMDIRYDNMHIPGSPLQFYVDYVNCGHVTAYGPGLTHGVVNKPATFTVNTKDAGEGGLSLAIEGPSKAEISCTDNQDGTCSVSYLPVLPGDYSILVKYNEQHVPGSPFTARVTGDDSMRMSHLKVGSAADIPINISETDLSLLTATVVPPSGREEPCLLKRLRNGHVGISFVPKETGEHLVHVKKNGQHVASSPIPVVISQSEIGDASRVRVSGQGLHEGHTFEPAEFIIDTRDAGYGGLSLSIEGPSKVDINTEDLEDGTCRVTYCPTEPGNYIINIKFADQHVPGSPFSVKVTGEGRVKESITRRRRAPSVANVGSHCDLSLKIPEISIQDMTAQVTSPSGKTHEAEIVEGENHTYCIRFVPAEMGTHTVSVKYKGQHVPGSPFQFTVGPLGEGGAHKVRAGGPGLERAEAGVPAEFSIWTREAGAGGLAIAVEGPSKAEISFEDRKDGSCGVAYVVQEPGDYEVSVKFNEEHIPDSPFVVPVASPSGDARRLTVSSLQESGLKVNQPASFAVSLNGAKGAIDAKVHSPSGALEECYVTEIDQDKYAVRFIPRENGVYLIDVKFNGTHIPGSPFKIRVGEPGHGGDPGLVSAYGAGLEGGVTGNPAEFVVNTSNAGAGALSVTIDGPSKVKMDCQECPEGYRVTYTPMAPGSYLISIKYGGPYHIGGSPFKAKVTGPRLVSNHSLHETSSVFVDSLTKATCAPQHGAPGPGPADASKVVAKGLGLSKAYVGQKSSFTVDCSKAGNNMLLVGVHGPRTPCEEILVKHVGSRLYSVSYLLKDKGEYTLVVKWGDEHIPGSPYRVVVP

Biological target: T1, FLAG-TurboID-LUZP1 (human) (UniProt Q86V48)
T1 sequence: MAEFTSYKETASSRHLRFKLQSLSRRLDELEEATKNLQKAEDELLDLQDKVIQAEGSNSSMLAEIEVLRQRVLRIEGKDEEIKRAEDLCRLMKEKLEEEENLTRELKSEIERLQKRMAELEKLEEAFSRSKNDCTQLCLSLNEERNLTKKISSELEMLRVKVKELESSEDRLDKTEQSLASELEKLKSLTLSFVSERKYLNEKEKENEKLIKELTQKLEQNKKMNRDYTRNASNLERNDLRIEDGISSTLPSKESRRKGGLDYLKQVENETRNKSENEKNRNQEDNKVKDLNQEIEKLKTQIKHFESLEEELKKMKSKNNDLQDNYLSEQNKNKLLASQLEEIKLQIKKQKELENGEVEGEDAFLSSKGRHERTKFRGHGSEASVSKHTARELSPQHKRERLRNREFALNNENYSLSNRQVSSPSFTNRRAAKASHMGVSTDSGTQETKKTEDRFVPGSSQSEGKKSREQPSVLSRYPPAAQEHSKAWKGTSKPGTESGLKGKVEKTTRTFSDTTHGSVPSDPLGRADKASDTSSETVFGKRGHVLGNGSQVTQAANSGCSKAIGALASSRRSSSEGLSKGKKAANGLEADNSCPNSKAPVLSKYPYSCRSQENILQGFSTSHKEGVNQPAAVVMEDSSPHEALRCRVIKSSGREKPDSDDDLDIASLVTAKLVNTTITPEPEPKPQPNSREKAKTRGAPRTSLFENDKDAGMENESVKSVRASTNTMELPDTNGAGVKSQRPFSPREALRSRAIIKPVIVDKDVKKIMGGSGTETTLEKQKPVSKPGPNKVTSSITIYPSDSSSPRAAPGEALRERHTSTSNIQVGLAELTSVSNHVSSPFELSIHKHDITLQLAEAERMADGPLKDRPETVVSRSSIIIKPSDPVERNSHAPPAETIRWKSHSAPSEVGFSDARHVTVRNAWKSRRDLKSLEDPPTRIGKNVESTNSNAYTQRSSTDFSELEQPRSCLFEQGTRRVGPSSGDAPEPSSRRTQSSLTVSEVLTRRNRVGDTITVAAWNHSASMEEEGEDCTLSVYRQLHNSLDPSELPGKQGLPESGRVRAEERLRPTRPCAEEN
Assay: proximity labelling

binding: binds
Substance: filamin A (FLNA) (from UniProt P21333 1-2647)
